The list shows a part of the results.
tested on: Caenorhabditis elegans N2; assay: aldicarb interaction hit call (worm growth perturbed in combination with 10 uM aldicarb in both replicates, no effect as single agent) (binary (1 = interacts)); higher = interacts with aldicarb (growth perturbed); conditions: first compound 1.5 µM; aldicarb concentration 10 µM; 6 days; 20 °C
Protocol: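 C. elegans liquid growth assay in 96-well plates: about 40 synchronized L1 worms in NGM with HB101 E. coli, 6 days at 20 C, 0.6% DMSO. Each wactive compound was tested at 1.5 uM plus 10 uM aldicarb, and alone in DMSO controls. Viable worms were scored under a dissection microscope in two replicates. A hit is a compound that perturbed growth with aldicarb in both replicates but had no obvious effect as a single agent. Only compounds that overgrew as single agents are kept.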

| SMILES | aldicarb interaction hit call |
| --- | --- |
| CCCC(=O)N1CCN(c2cc(C)c([N+](=O)[O-])cc2F)CC1C (stereo not given) [wact-497] + CNC(=O)O/N=C/C(C)(C)SC [aldicarb] | inactive: 0 |
| COCCN(Cc1nc(-c2ccc(-c3ccccc3)cc2)oc1C)C(C)C [wact-235] + CNC(=O)O/N=C/C(C)(C)SC [aldicarb] | inactive: 0 |
| Clc1ccc(CSc2ncccn2)cc1Cl [wact-92] + CNC(=O)O/N=C/C(C)(C)SC [aldicarb] | inactive: 0 |
| COc1ccc(OCc2ccc(Cl)cc2)cc1 [wact-102] + CNC(=O)O/N=C/C(C)(C)SC [aldicarb] | inactive: 0 |
| COCCOC1CCN(Cc2cn(-c3ccc(C)cc3)nc2-c2ccc(F)cc2)CC1 [wact-318] + CNC(=O)O/N=C/C(C)(C)SC [aldicarb] | inactive: 0 |
| Oc1c(Cl)cc(Cl)cc1/C=N/Nc1ccccc1 [wact-420] + CNC(=O)O/N=C/C(C)(C)SC [aldicarb] | inactive: 0 |
| C#CCn1/c(=N/C(=O)c2ccccc2S(C)(=O)=O)sc2cc(F)ccc21 [wact-353] + CNC(=O)O/N=C/C(C)(C)SC [aldicarb] | inactive: 0 |
| CCNCCOc1ccc(-c2ccccc2)cc1.Cl [wact-179] + CNC(=O)O/N=C/C(C)(C)SC [aldicarb] | inactive: 0 |
| Cc1cc2c(NCCc3ccccc3)ncnc2s1.Cl [wact-550] + CNC(=O)O/N=C/C(C)(C)SC [aldicarb] | inactive: 0 |
| CCCNC(=O)c1cccc(Oc2ccccc2)c1 [wact-581] + CNC(=O)O/N=C/C(C)(C)SC [aldicarb] | inactive: 0 |
| O=C(Nc1ccc(CN2CCOCC2)cc1)c1ccc(Cl)c(Cl)c1 [wact-499] + CNC(=O)O/N=C/C(C)(C)SC [aldicarb] | inactive: 0 |
| CCOc1ccc(/C=C/C(=O)c2ccc(OC)cc2)cc1 [wact-20] + CNC(=O)O/N=C/C(C)(C)SC [aldicarb] | inactive: 0 |
| O=C1CC(N2CCN(c3ccc([N+](=O)[O-])cc3)CC2)C(=O)N1c1ccccc1F (stereo not given) [wact-56] + CNC(=O)O/N=C/C(C)(C)SC [aldicarb] | inactive: 0 |
| Fc1ccc(N2CCN(C3CCC(c4ccccc4)CC3)CC2)cc1 (stereo not given) [wact-49] + CNC(=O)O/N=C/C(C)(C)SC [aldicarb] | inactive: 0 |
| COC1CCN(Cc2nc(-c3ccc(-c4ccccc4)cc3)oc2C)CC1 [wact-281] + CNC(=O)O/N=C/C(C)(C)SC [aldicarb] | inactive: 0 |
| Cc1cc(Cl)ccc1C(=O)C1CCCN(Cc2cccn2-c2nccs2)C1 (stereo not given) [wact-254] + CNC(=O)O/N=C/C(C)(C)SC [aldicarb] | inactive: 0 |
| COc1cc(C(=O)NC(=S)Nc2cc(Cl)ccc2Cl)cc(OC)c1OC [wact-462] + CNC(=O)O/N=C/C(C)(C)SC [aldicarb] | inactive: 0 |
| CN1CCN(c2ccc(NC(=O)c3ccc4c(c3)OCCO4)cc2Cl)CC1 [wact-173] + CNC(=O)O/N=C/C(C)(C)SC [aldicarb] | inactive: 0 |
| O=C(NC(=S)Nc1ccccc1Cl)c1cccs1 [wact-458] + CNC(=O)O/N=C/C(C)(C)SC [aldicarb] | inactive: 0 |
| CCN1CCN(c2ccc(NC(=O)c3cccs3)cc2Cl)CC1 [wact-103] + CNC(=O)O/N=C/C(C)(C)SC [aldicarb] | inactive: 0 |

Laid out differently: results already given
SMILES	aldicarb interaction hit call
CCNCCOc1ccc(-c2ccccc2)cc1.Cl [wact-179] + CNC(=O)O/N=C/C(C)(C)SC [aldicarb]	inactive: 0
Cc1cc2c(NCCc3ccccc3)ncnc2s1.Cl [wact-550] + CNC(=O)O/N=C/C(C)(C)SC [aldicarb]	inactive: 0
CCCNC(=O)c1cccc(Oc2ccccc2)c1 [wact-581] + CNC(=O)O/N=C/C(C)(C)SC [aldicarb]	inactive: 0
O=C(Nc1ccc(CN2CCOCC2)cc1)c1ccc(Cl)c(Cl)c1 [wact-499] + CNC(=O)O/N=C/C(C)(C)SC [aldicarb]	inactive: 0
CCOc1ccc(/C=C/C(=O)c2ccc(OC)cc2)cc1 [wact-20] + CNC(=O)O/N=C/C(C)(C)SC [aldicarb]	inactive: 0
O=C1CC(N2CCN(c3ccc([N+](=O)[O-])cc3)CC2)C(=O)N1c1ccccc1F (stereo not given) [wact-56] + CNC(=O)O/N=C/C(C)(C)SC [aldicarb]	inactive: 0
Fc1ccc(N2CCN(C3CCC(c4ccccc4)CC3)CC2)cc1 (stereo not given) [wact-49] + CNC(=O)O/N=C/C(C)(C)SC [aldicarb]	inactive: 0
COC1CCN(Cc2nc(-c3ccc(-c4ccccc4)cc3)oc2C)CC1 [wact-281] + CNC(=O)O/N=C/C(C)(C)SC [aldicarb]	inactive: 0
Cc1cc(Cl)ccc1C(=O)C1CCCN(Cc2cccn2-c2nccs2)C1 (stereo not given) [wact-254] + CNC(=O)O/N=C/C(C)(C)SC [aldicarb]	inactive: 0

Further results.

| SMILES | aldicarb interaction hit call |
| --- | --- |
| O=[N+]([O-])c1ccc(N2CCN(C(=S)NCc3ccc(Cl)cc3)CC2)cc1 [wact-115] + CNC(=O)O/N=C/C(C)(C)SC [aldicarb] | inactive: 0 |
| CN(Cc1nc(-c2ccc(C(F)(F)F)cc2)no1)CC1CCCN1C (stereo not given) [wact-271] + CNC(=O)O/N=C/C(C)(C)SC [aldicarb] | inactive: 0 |
| CCN1CCN(C(=O)Nc2cc(Cl)cc(Cl)c2)CC1 [wact-199] + CNC(=O)O/N=C/C(C)(C)SC [aldicarb] | inactive: 0 |
| CN(CC1CC=CCC1)CC1CCN(CCc2ccc(F)cc2)CC1 (stereo not given) [wact-303] + CNC(=O)O/N=C/C(C)(C)SC [aldicarb] | inactive: 0 |
| Clc1cccc(OCc2nc(-c3ccccc3)no2)c1 [wact-564] + CNC(=O)O/N=C/C(C)(C)SC [aldicarb] | inactive: 0 |
| O=[N+]([O-])c1ccc(N2CCN(CC3CCCCC3)CC2)cc1 [wact-45] + CNC(=O)O/N=C/C(C)(C)SC [aldicarb] | inactive: 0 |
| CC1CCN(Cc2nc(-c3ccccc3)no2)CC1.Cl [wact-572] + CNC(=O)O/N=C/C(C)(C)SC [aldicarb] | inactive: 0 |
| CS(=O)(=O)c1ncc(CN2CCCC2c2ccc(F)cc2)n1CCCc1ccccc1 (stereo not given) [wact-233] + CNC(=O)O/N=C/C(C)(C)SC [aldicarb] | inactive: 0 |
| Cc1cc(I)ccc1NC(=S)NC(=O)C(C)(C)C [wact-72] + CNC(=O)O/N=C/C(C)(C)SC [aldicarb] | inactive: 0 |
| Cc1oc(-c2ccc(C(F)(F)F)cc2)nc1CN(C)C(C1CC1)C1CC1 [wact-330] + CNC(=O)O/N=C/C(C)(C)SC [aldicarb] | inactive: 0 |
| O=C(c1ccco1)N(C(=O)c1ccco1)c1ccc(I)cn1 [wact-162] + CNC(=O)O/N=C/C(C)(C)SC [aldicarb] | inactive: 0 |
| O=C(c1ccc(F)cc1)N1CCN(c2ccc(C(F)(F)F)cc2[N+](=O)[O-])CC1 [wact-450] + CNC(=O)O/N=C/C(C)(C)SC [aldicarb] | inactive: 0 |
| CCC(=O)N1CCN(c2ccc(NC(=O)c3cc4ccccc4o3)cc2Cl)CC1 [wact-134] + CNC(=O)O/N=C/C(C)(C)SC [aldicarb] | active: 1 |
| Cl.Clc1ccc(COc2ccc(CNC3CC3)cc2)cc1 [wact-204] + CNC(=O)O/N=C/C(C)(C)SC [aldicarb] | inactive: 0 |
| Cc1cc(Cl)cc(Br)c1OCCCN1CCN(C)CC1.Cl [wact-143] + CNC(=O)O/N=C/C(C)(C)SC [aldicarb] | inactive: 0 |
| CCOc1ccc(C(=O)/C=C/c2ccc(F)cc2)cc1 [wact-414] + CNC(=O)O/N=C/C(C)(C)SC [aldicarb] | active: 1 |
| O=C(c1cccc(C(F)(F)F)c1)C1CCCN(Cc2cccc3cnccc23)C1 (stereo not given) [wact-248] + CNC(=O)O/N=C/C(C)(C)SC [aldicarb] | inactive: 0 |
| Cc1ccc(-c2cnc(-c3ccncc3)o2)cc1 [wact-23] + CNC(=O)O/N=C/C(C)(C)SC [aldicarb] | inactive: 0 |
| CCSc1nnc(-c2ccc(Cl)cc2Cl)o1 [wact-4] + CNC(=O)O/N=C/C(C)(C)SC [aldicarb] | inactive: 0 |
| C#CCn1/c(=N/C(=O)c2ccc(OC(C)C)cc2)sc2cc(S(N)(=O)=O)ccc21 [wact-353] + CNC(=O)O/N=C/C(C)(C)SC [aldicarb] | inactive: 0 |

From the supplement of paper PMC5393889
